This is one part of the list.
Each sequence was assayed against OsWRKY34 (Oryza sativa, UniProt Q0JBA9 1-250) (assay: protein-binding microarray (RPBM); PBS, 2% BSA, 51.3 ng/ul salmon testes DNA, 50 uM zinc acetate, 200 nM TF, 25 C, 1 h; high values mean tight binding). Details: protein: recombinant; tags: N-terminal polyhistidine and DsRed monomer fusion (pET32a); label: CyDye5-dUTP incorporated in the synthesized complementary strand; 3' TTTTT single-stranded linker to array surface; dsDNA, one strand shown.
Method in brief: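 An Axon 4000B scanner gave the binding signal as per-feature fluorescence intensity in arbitrary units. This followed washing of a custom Agilent array that had been incubated for 1 h at 25 °C with 200 nM protein in PBS, 2% BSA, salmon testes DNA and 50 µM zinc acetate. The proteins were transcription factors fused at the N-terminus to polyhistidine and DsRed, expressed in E. coli BL21-CodonPlus and purified on Ni–NTA.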

Amino acid sequences for entries named in this document (tags omitted).
UniProt Q0JBA9, entry or part of it: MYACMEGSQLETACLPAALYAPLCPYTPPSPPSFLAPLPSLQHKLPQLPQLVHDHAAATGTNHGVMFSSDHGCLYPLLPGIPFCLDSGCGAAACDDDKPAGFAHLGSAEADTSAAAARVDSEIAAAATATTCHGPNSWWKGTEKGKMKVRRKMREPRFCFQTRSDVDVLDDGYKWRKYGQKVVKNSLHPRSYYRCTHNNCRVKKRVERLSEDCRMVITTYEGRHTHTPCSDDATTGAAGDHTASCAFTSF

Sequence | binding signal
TGCTGCACGCCGCCGCCGAGTAGTCGTCGTCACCATTGTTCGGAGTCACCTAGTGCAG | 8530 fluorescence intensity (a.u.)
TCATCTTTGCCAATTCCATCTTTCTTCTGTTCTCCTTTCCCGGAGTCACCTAGTGCAG | 9700 fluorescence intensity (a.u.)
CCGCGATAGTTCATGTGGGTAATTCGTACTTTTTCCTATACGGAGTCACCTAGTGCAG | 11700 fluorescence intensity (a.u.)
AGTGCTTGTGTAGTTGTGTCGCGTGTGTGTCTGAGAGAGACGGAGTCACCTAGTGCAG | 16000 fluorescence intensity (a.u.)
TTCCACTGATTCCACCAATTCTGCCGCTGTTGGATCTCCACGGAGTCACCTAGTGCAG | 9860 fluorescence intensity (a.u.)
ACACACGCACACACTTATCAGTTCTCACCCAAGCCTACCCCGGAGTCACCTAGTGCAG | 9770 fluorescence intensity (a.u.)
TCTCTCTGGTGTGGGGCCCCACTCTTTATATCATCACCACCGGAGTCACCTAGTGCAG | 10700 fluorescence intensity (a.u.)
CGTTTTCCCGCCACCACCACGCAATCTCAGCCGTCCGATCCGGAGTCACCTAGTGCAG | 9130 fluorescence intensity (a.u.)
CTCTCTCTCTCTCTCTCTCTCGCCGCCTCAAACTTTGATTCGGAGTCACCTAGTGCAG | 10700 fluorescence intensity (a.u.)
CTTTTTTTAGTCGTCTTGGTTCAGTTTCCTGGTTGCTTCTCGGAGTCACCTAGTGCAG | 13700 fluorescence intensity (a.u.)
TCCACCCAACATCTTTTTTCTCAGCCGTCGTCTCATCTCGCGGAGTCACCTAGTGCAG | 13200 fluorescence intensity (a.u.)
CCAGATTCATAGCAGATATGTGATGTCCCATACTTTTTTTCGGAGTCACCTAGTGCAG | 8380 fluorescence intensity (a.u.)
TACTAATGTTATTACACGTATTGCCATTTGATTTATTGTTCGGAGTCACCTAGTGCAG | 9920 fluorescence intensity (a.u.)
CCTTTATGATCTTGCGTTATCGAGCACCTTGTTTGGTCTTCGGAGTCACCTAGTGCAG | 10200 fluorescence intensity (a.u.)
CTCCACACACCCCGCCACATCCGCCTCTGCGCGACTGCGCCGGAGTCACCTAGTGCAG | 8500 fluorescence intensity (a.u.)
TTTATGGTGATCTTCTGCAAACGACTTTTGAATATATATACGGAGTCACCTAGTGCAG | 9180 fluorescence intensity (a.u.)
TAAACCATCTACATCTCCATTCCTTTTCTTTTATTGGATACGGAGTCACCTAGTGCAG | 8600 fluorescence intensity (a.u.)
TTTTTGACAGCCCTACGTGGGTGTGGGTATGGGGCAAGGGCGGAGTCACCTAGTGCAG | 9120 fluorescence intensity (a.u.)
GGAGGAGGAGCACGATGGGGTCGCGTGTGGAGGGGAGGAGCGGAGTCACCTAGTGCAG | 9090 fluorescence intensity (a.u.)
CAATGCCATATGGACGTGACGTGTCCTTTTCTTTTTTTTCCGGAGTCACCTAGTGCAG | 9640 fluorescence intensity (a.u.)
GATAACCGCATCTTTTGGTGAACCTTTGTAACTACTACCTCGGAGTCACCTAGTGCAG | 9670 fluorescence intensity (a.u.)

Fetched one by one from the list above:
Sequence | binding signal
TCATCTTTGCCAATTCCATCTTTCTTCTGTTCTCCTTTCCCGGAGTCACCTAGTGCAG | 9700 fluorescence intensity (a.u.)
TTTATGGTGATCTTCTGCAAACGACTTTTGAATATATATACGGAGTCACCTAGTGCAG | 9180 fluorescence intensity (a.u.)

Further results.

Sequence | binding signal
CGCTGCGCTGCCGGTCCATTTCTAGAAGCCCTCGCGCTCCCGGAGTCACCTAGTGCAG | 9130 fluorescence intensity (a.u.)
CTTGCTTCGCGAACGCCACATCCACTGCACTTCATACCTTCGGAGTCACCTAGTGCAG | 12700 fluorescence intensity (a.u.)
ACATGGTTGCTTCACTTTTTTCTTACATGGTTCATTACATCGGAGTCACCTAGTGCAG | 13800 fluorescence intensity (a.u.)
CCGCTGGTCCACGTTCTCGCTCGACTCAGTCGCCACCTCCCGGAGTCACCTAGTGCAG | 9140 fluorescence intensity (a.u.)
GACAACAATTATACCCTAATGCCCCTTGTTTTTGTGTGACCGGAGTCACCTAGTGCAG | 8080 fluorescence intensity (a.u.)
CGGCACGGTGCTGCAGGGGAGGTACGAGATGGGGCGGGTGCGGAGTCACCTAGTGCAG | 11200 fluorescence intensity (a.u.)
ATGCATACCCAGAACTCACCTCTCATCTCCTCGACCCTATCGGAGTCACCTAGTGCAG | 8350 fluorescence intensity (a.u.)
TCGCCCCTTCTTCTCTTCTCCTCCCCTTTCTTCTTTTTTTCGGAGTCACCTAGTGCAG | 8120 fluorescence intensity (a.u.)
TCACCGCGCGCTCCAGCTCCGCCGCCTCCACGAAGTTGTCCGGAGTCACCTAGTGCAG | 8470 fluorescence intensity (a.u.)
CCCGTCGTCCCTACCAGCTGCCACCGCCGCCCTGTCCTCCCGGAGTCACCTAGTGCAG | 8180 fluorescence intensity (a.u.)
TCCCTTAACTCGGTTCCCCTTCGCTTCGTTGACCCCTTGCCGGAGTCACCTAGTGCAG | 11200 fluorescence intensity (a.u.)
GGTGGTGTGGTGGGGTGGGGACTACCACCATTAATGCAAACGGAGTCACCTAGTGCAG | 12500 fluorescence intensity (a.u.)
CGCTTATTCTCAACTCCTCGCATCTCTCTTCCTCTACATCCGGAGTCACCTAGTGCAG | 8920 fluorescence intensity (a.u.)
TTTTGCTCTCACGATCCATATGCGTACTTATCTGCATGCCCGGAGTCACCTAGTGCAG | 12000 fluorescence intensity (a.u.)
TTCCTCCCGCTCATCAGCCACATCGACATCATCCACTGCCCGGAGTCACCTAGTGCAG | 10300 fluorescence intensity (a.u.)
GAGCTCTCGACACCTCGCCGGAAACCACCACCCACCAAAACGGAGTCACCTAGTGCAG | 9840 fluorescence intensity (a.u.)
GGGCCCCACTCCACTTGTCACCCCACCCACACGGCCACACCGGAGTCACCTAGTGCAG | 11500 fluorescence intensity (a.u.)
AGCTTCAGCTGCCCGCTTTCTCTCCACCTAACGGCAGGCTCGGAGTCACCTAGTGCAG | 8240 fluorescence intensity (a.u.)
AGACAAGACCACGGTCAAACAATGCTTTGGACGGGGTTGACGGAGTCACCTAGTGCAG | 11500 fluorescence intensity (a.u.)
ACTTTTCTGAATATTTACTCTCCATCTCTCTCTCACAAAACGGAGTCACCTAGTGCAG | 8060 fluorescence intensity (a.u.)
TCATTGTTTCCATCTCTTTGCCTCAATCTCGCATATACCCCGGAGTCACCTAGTGCAG | 8460 fluorescence intensity (a.u.)

Part of the list above in another layout:
Sequence	binding signal
GGTGGTGTGGTGGGGTGGGGACTACCACCATTAATGCAAACGGAGTCACCTAGTGCAG	12500 fluorescence intensity (a.u.)
ACTTTTCTGAATATTTACTCTCCATCTCTCTCTCACAAAACGGAGTCACCTAGTGCAG	8060 fluorescence intensity (a.u.)

Reference: article PMC7819943, “Rice protein-binding microarrays: a tool to detect cis-acting elements near promoter regions in rice”
